Results of single-concentration screens

By UniProt entry, the sequences of proteins in these tests, tags left out. Residues count along the entry.
UniProt Q8IDJ8, 1-583: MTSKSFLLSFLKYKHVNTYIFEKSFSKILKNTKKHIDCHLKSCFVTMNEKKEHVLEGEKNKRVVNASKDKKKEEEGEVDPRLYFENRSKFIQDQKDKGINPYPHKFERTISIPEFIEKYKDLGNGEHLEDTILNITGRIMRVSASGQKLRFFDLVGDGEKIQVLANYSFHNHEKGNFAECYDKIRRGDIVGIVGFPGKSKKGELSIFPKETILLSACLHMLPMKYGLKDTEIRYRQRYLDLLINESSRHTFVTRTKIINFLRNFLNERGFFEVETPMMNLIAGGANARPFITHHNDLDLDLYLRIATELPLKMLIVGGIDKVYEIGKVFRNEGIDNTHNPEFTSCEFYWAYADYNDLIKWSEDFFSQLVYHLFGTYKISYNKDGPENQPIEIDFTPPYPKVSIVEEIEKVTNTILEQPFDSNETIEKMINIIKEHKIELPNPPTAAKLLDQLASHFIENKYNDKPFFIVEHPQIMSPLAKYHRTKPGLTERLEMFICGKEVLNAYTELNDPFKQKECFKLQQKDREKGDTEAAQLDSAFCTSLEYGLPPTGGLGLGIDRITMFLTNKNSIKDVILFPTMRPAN
UniProt A4I591, 1-473: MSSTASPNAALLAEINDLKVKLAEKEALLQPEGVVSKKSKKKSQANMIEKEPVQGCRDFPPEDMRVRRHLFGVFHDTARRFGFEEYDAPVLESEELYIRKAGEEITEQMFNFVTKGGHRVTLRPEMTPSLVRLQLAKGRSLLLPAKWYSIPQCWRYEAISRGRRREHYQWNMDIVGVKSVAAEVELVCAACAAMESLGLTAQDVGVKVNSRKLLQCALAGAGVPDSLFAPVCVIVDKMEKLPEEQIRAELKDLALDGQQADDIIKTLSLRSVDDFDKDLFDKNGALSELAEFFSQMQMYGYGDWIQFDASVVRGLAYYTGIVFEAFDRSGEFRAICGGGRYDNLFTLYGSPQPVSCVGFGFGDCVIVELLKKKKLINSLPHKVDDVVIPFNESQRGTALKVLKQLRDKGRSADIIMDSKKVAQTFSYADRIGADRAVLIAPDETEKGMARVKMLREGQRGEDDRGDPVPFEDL
UniProt Q4DA54, 1-478: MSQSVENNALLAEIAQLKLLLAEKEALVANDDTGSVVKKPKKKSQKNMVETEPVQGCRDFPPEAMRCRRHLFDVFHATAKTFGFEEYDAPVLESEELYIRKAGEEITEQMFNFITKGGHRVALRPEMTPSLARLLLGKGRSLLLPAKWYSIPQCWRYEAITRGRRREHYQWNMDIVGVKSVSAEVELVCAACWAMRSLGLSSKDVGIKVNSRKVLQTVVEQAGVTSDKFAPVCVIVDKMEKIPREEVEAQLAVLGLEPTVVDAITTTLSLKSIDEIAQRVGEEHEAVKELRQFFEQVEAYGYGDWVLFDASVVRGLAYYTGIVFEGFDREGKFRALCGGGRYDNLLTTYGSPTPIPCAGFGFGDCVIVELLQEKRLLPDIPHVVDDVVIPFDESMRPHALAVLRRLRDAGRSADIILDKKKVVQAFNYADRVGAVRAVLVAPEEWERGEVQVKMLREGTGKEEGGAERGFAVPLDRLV
UniProt P9WPC5, whole entry: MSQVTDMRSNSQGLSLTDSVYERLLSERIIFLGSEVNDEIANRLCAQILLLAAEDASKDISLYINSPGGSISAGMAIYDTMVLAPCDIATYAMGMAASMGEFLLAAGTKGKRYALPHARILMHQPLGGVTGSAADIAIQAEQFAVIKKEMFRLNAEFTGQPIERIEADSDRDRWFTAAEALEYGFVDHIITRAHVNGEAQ
UniProt P9WPC3, whole entry partner: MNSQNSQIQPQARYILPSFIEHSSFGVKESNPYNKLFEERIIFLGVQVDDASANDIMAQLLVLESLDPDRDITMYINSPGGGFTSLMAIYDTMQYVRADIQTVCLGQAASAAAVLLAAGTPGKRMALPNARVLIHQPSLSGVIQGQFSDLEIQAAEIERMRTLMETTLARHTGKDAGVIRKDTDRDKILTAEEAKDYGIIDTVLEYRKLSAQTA

From ChEMBL document CHEMBL3988442, “University of Dundee, Small-Polar-MMV Screening Library” (2021).

PfKRS1: 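Lysine-tRNA ligase, Plasmodium falciparum 3D7 (UniProt Q8IDJ8). Enzyme assay of the cytosolic lysyl-tRNA synthetase in 384-well plates, read by luminescence. Tested at 30 µM. Direction is inferred from only a few compounds that gave an IC50; most scored high, so higher reads as stronger inhibition. Of about 69,000 compounds tested this way, about 49 (0.071%) reached 50% or more in at least one test.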
LiHisRS: 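Histidine-tRNA ligase, Leishmania infantum (UniProt A4I591). Enzyme assay of histidyl-tRNA synthetase; the read-out is not stated. Tested at 30 µM. The record gives no direction; compounds that gave an IC50 in retests scored well above the rest, so higher reads as stronger inhibition. The assay is labelled LdHisRS but filed under L. infantum. Size under these conditions: about 69,000 compounds, about 410 of them at 50% or above in at least one test.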
TcHisRS: 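Histidine-tRNA ligase, Trypanosoma cruzi CL Brener (UniProt Q4DA54). Enzyme assay of histidyl-tRNA synthetase; the read-out is not stated. Concentration: 30 µM. Higher reads as stronger inhibition (inferred: compounds with an IC50 in retests scored well above the rest). About 69,000 compounds were tested under these conditions; 0.045% (about 31) showed 50% or more at least once.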
Leishmania in macrophages: 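Cell assay of Leishmania donovani living inside macrophages; the read-out is not stated. Compounds at 30 µM. The record gives no direction; compounds that gave an IC50 in retests scored well above the rest, so higher reads as stronger inhibition. About 69,000 compounds were tested under these conditions; 1.5% (about 1,000) showed 50% or more at least once.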
ClpP1P2: 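ClpP1P2, Mycobacterium tuberculosis (UniProt P9WPC5 and UniProt P9WPC3). Protease assay of ClpP1P2, read by the AMC dye that it sets free. Concentration: 50 µM. Higher reads as stronger inhibition, judged from the few compounds that gave an IC50. Most other retested compounds had strongly negative values. About 69,000 compounds were tested under these conditions; 0.015% (about 10) showed 50% or more at least once.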

Each number is a percent effect as filed.
The controls that fix the scale are not given in the record; negative values are as filed.
The compounds are a random part of those screened.
Two or more numbers in one place are separate tests of the same structure; such repeats can differ widely.

CNC(=O)NC(=O)CCSc1ccccc1Cl gave PfKRS1: 3.023%; LiHisRS: 9.524%; TcHisRS: 2.564%; Leishmania in macrophages: 23.16%; ClpP1P2: 7.758%.
CN1[C@H](CN2CCCC2)C[C@@H]2CN(C(=O)c3cnccn3)CC[C@@H]21 gave PfKRS1: 4.538%; LiHisRS: 13.46%; TcHisRS: 0.5587%; ClpP1P2: -8.935%.
Cc1ncccc1OC1(C(=O)NCCNc2ccccc2)CCNCC1 gave PfKRS1: 1.573%; LiHisRS: 28.85%; TcHisRS: 2.5%; Leishmania in macrophages: 14.12%; ClpP1P2: -7.238%.
Cc1c(C)n(CC(O)CN2CCCCCC2)c2c(Cl)cccc12 (configuration not stated) gave PfKRS1: 1.674%; LiHisRS: 10.17%; TcHisRS: -1.463%; Leishmania in macrophages: -13.19%; ClpP1P2: -0.2931%.
CC1(C)CN(CC(O)C(C)(C)C)C(=O)CN(C(=O)c2ccccc2)C1 (configuration not stated) gave PfKRS1: 2.31%; LiHisRS: 18.56%; TcHisRS: -6.936%; Leishmania in macrophages: 13.61%; ClpP1P2: 6.444%.
Cc1cc(C)cc(NCCC(=O)NCc2cccnc2N(C)C)c1 gave PfKRS1: 0.5942%; LiHisRS: 9.333%; TcHisRS: 4.762%; Leishmania in macrophages: 9.107%; ClpP1P2: -1.237%.
COc1cccc(S(=O)(=O)N2CCCCC2CCN2CCCC2=O)c1 (configuration not stated) gave PfKRS1: 4.564%; LiHisRS: 11.67%; TcHisRS: 2.609%; Leishmania in macrophages: -19.79%; ClpP1P2: -2.314%.
Nc1nccnc1C(=O)N1CC(OCc2cccc3ccccc23)C1 gave PfKRS1: 5.036%; LiHisRS: 21.01%; TcHisRS: 3.922%; Leishmania in macrophages: 27.85%; ClpP1P2: -6.686%.
CCN1CCC2(CC1)CC(NCc1cccs1)c1ccccc1O2 (configuration not stated) gave PfKRS1: -5.436%; LiHisRS: 23.08%; TcHisRS: -2.439%; ClpP1P2: -13.61%.
O=C(NCc1cncc2c1CCN(CC1CCOC1)C2)c1ccno1 (configuration not stated) gave PfKRS1: 5.721%; LiHisRS: 29.73%; TcHisRS: -2.488%; ClpP1P2: -6.858%.
CSC1(CNC(=O)NC(C)c2ccc(F)cc2)CCOCC1 (configuration not stated) gave PfKRS1: 0.15%; LiHisRS: 5.085%; TcHisRS: 3.415%; Leishmania in macrophages: 27.22%; ClpP1P2: -13.24%.
COc1ccc(C2=CCN(C(=O)CN(CC(N)=O)C(C)C)CC2)cc1 gave PfKRS1: 0.1973%; LiHisRS: 13.56%; TcHisRS: 5.714%; Leishmania in macrophages: 41.14%; ClpP1P2: -28%.
Fc1ccc(OCCNC2CCN(Cc3ccccn3)CC2)c(F)c1 gave PfKRS1: -1.386%; LiHisRS: 10.2%; TcHisRS: 3.077%; Leishmania in macrophages: 52.55%; ClpP1P2: -10.32%.
CCC(C(=O)NCc1ccccn1)N(c1cccc(C)c1)S(C)(=O)=O (configuration not stated) gave PfKRS1: 1.535%; LiHisRS: 5.208%; TcHisRS: 5.587%; Leishmania in macrophages: 20.01%; ClpP1P2: -3.183%.
CC(=O)N1CCCC1c1nccnc1Nc1ncccn1 (configuration not stated) gave PfKRS1: 2.712%; LiHisRS: 13.04%; TcHisRS: 8.791%; Leishmania in macrophages: -0.02244% and 3.162%; ClpP1P2: 14.11%.
CC(C)(C)CN(CCC#N)C(=O)c1cccc(CC#N)c1 gave PfKRS1: 9.271%; LiHisRS: 8.85%; TcHisRS: 0%; Leishmania in macrophages: -3.365%; ClpP1P2: -6.837%.
CCn1nc(C)c(CN2CCCC(c3ccc(C(=O)O)cc3)C2)c1C (configuration not stated) gave PfKRS1: 7.31%; LiHisRS: 19.35%; TcHisRS: 0%; Leishmania in macrophages: 17.25%; ClpP1P2: -5.075%.
Cc1nccn1CCCn1cncc1-c1ccc2c(c1)CCC(C)N2C.Cl (configuration not stated) gave Leishmania in macrophages: 16.13%.
O=C(c1cccnc1)N1CCc2c(nc(N3CCCC3)[nH]c2=O)C1 gave PfKRS1: 1.722%; LiHisRS: 7.292%; TcHisRS: 6.383%; Leishmania in macrophages: 3.157%; ClpP1P2: -5.618%.

Once more, the final 2:

{"structure": "Cc1nccn1CCCn1cncc1-c1ccc2c(c1)CCC(C)N2C.Cl", "stereo": "configuration not stated", "Leishmania in macrophages": 16.13}
{"structure": "O=C(c1cccnc1)N1CCc2c(nc(N3CCCC3)[nH]c2=O)C1", "PfKRS1": 1.722, "LiHisRS": 7.292, "TcHisRS": 6.383, "Leishmania in macrophages": 3.157, "ClpP1P2": -5.618}